Values from PubChem BioAssay AID1224826 (NIAID, 2016)

Test: 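Genes that change LPS-induced Tnf promoter activity in mouse macrophages when knocked down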 (primary screen)
Cells: RAW264.7 G9 macrophages from mouse bearing reporters for p65 (GFP) and the Tnf promoter (mCherry)
Reagent: siRNA pool against mouse genes, 100 nM
Time to read-out: 16 h of LPS stimulation, after 2 days of siRNA transfection
Challenge: bacterial lipopolysaccharide (Salmonella minnesota R595), 10 ng/ml
Detection: 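Imaged Tnf reporter mCherry in nuclei, minus background, normalised per plate to the median and expressed as robust z-scores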
Direction: Tnf reporter robust z-score: higher = stronger Tnf promoter reporter signal after LPS; Tnf reporter intensity: higher = stronger Tnf promoter reporter signal
Active means: 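Called active when robust z-score is at most -1.3, matching the median of the Tlr4 knock-down control, or over 3; control wells and wells with under 50 cells never active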
Meaning of the calls: active = Tnf reporter clearly lowered or raised; inactive = no clear change in Tnf reporter
The deposit covers about 17,000 reagents; below is a part drawn at random. About 1,110 of all reagents (6.6%) were called active. 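Active means lowered or raised reporter signal; replicate intensities are raw and not normalised per plate.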

gene	Tnf reporter robust z-score	fewer than 50 cells in well	Tnf reporter intensity, replicate 1	Tnf reporter intensity, replicate 2	call
Ikbke	1.2	enough cells in well	284	218	inactive
Atcay	0.75	enough cells in well	224	197	inactive
Skint10	-0.88	enough cells in well	101	125	inactive
Zfp668	-1.29	enough cells in well	104	116	inactive
Or9k7		fewer than 50 cells per well; well left out of calls	23.3	127	inactive
Rgs16	0.69	enough cells in well	324	112	inactive
Dpysl2	-0.67	enough cells in well	154	83.3	inactive
Mfap2	-0.02	enough cells in well	185	149	inactive
Uncx		fewer than 50 cells per well; well left out of calls	94.9	120	inactive
Cabcoco1	0.68	enough cells in well	261	41.1	inactive
Cnnm3	0.04	enough cells in well	255	205	inactive
Pramel1	-0.05	enough cells in well	127	128	inactive
Mapkapk3	1.48	enough cells in well	167	237	inactive
Pxk	-0.08	enough cells in well	163	183	inactive
Ppef2	-0.59	enough cells in well	209	144	inactive
Gstk1	0.49	enough cells in well	312	174	inactive
Lnx2	1.07	enough cells in well	252	204	inactive
Rsrc1	-0.15	enough cells in well	204	86.7	inactive
Cacng1	0.54	enough cells in well	190	214	inactive
Tomm6	2.49	enough cells in well	478	143	inactive
Phpt1	-0.27	enough cells in well	233	166	inactive
Bmpr1b	-0.47	enough cells in well	183	117	inactive
Mns1	2.64	enough cells in well	372	232	inactive
Mknk2	1.32	enough cells in well	215	296	inactive
Pcdh20	1.62	enough cells in well	198	234	inactive
Fcf1	-1	enough cells in well	191	42.5	inactive
Cdc42ep2	-0.63	enough cells in well	109	166	inactive
Muc1	-0.45	enough cells in well	191	90.5	inactive
Adh5	0.4	enough cells in well	187	197	inactive
Cplx4	-0.93	enough cells in well	104	109	inactive
Cer1	0.6	enough cells in well	217	186	inactive
Atp2b2	-0.56	enough cells in well	125	147	inactive
Ccdc106	-0.6	enough cells in well	150	182	inactive
Ctse	1.26	enough cells in well	294	330	inactive
Zfp398	-0.37	enough cells in well	213	186	inactive
Hvcn1	-0.52	enough cells in well	234	36	inactive
Hgh1	1.27	enough cells in well	166	223	inactive
Fcmr	-0.47	enough cells in well	124	142	inactive
Mep1b	-0.44	enough cells in well	200	195	inactive
Irf6	-0.35	enough cells in well	207	135	inactive
Rab7b	1.7	enough cells in well	260	248	inactive
Il36b	-0.59	enough cells in well	202	113	inactive
Trmt10a		fewer than 50 cells per well; well left out of calls	59.5	68.9	inactive
Or9g19	0.89	enough cells in well	253	187	inactive
H3c8	0.09	enough cells in well	198	135	inactive
Crls1	2.59	enough cells in well	411	166	inactive
Cntfr	-0.67	enough cells in well	194	157	inactive
Dynlrb1	-0.76	enough cells in well	196	129	inactive
Rbm11	0.26	enough cells in well	352	212	inactive
Rps17		fewer than 50 cells per well; well left out of calls	42.8	38.1	inactive
Sirt5	0.71	enough cells in well	121	131	inactive
Mapk4	0.5	enough cells in well	194	221	inactive
Hoxb2	0.61	enough cells in well	257	253	inactive
Speer4f1	0.87	enough cells in well	156	104	inactive
Cope	-0.03	enough cells in well	189	168	inactive
Pdlim1	-0.07	enough cells in well	220	190	inactive
Psmb6	2.11	enough cells in well	410	338	inactive
Rspo2		fewer than 50 cells per well; well left out of calls	122	35	inactive

Records listed so far whose gene name begins with Z or z:
gene	Tnf reporter robust z-score	fewer than 50 cells in well	Tnf reporter intensity, replicate 1	Tnf reporter intensity, replicate 2	call
Zfp668	-1.29	enough cells in well	104	116	inactive
Zfp398	-0.37	enough cells in well	213	186	inactive
